Experimental findings from publication PMC13507205, “FAIMS-GPF XL-MS: crosslinking-mass spectrometry based on gas-phase fractionation” (Nature Communications, 2026) are described below.

Results are given in words; binding and its absence hold for the method and conditions named. Binding seen in cells or lysates may run through a third protein. Some binding calls cover weakened binding; strength is not graded here.

The test deals with T1, Septin 11 (human (endogenous in HeLa)) (UniProt Q9NVA2).
T1 sequence: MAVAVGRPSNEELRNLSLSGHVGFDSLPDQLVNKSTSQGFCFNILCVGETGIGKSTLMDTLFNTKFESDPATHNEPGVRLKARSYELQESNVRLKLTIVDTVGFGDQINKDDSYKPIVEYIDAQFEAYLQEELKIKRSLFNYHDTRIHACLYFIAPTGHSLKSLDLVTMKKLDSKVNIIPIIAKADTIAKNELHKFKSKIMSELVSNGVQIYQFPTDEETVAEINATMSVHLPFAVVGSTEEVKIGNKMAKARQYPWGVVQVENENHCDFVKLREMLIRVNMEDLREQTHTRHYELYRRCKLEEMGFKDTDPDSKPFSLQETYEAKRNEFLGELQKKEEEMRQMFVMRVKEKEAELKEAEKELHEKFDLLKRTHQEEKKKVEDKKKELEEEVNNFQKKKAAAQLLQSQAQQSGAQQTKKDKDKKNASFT
As to the kind of experiment: cross-linking; 'native' HeLa lysate at 1 mg/mL in 20 mM Hepes, 150 mM NaCl, 1.5 mM MgCl2, 0.5 mM DTT, pH 7.8; 2 mM DSSO, 45 min, RT; three replicates; 11-CV FAIMS-GPF nLC-MS/MS.

B1: Septin 2 (protein, UniProt Q15019 1-361)
chain: MSKQQPTQFINPETPGYVGFANLPNQVHRKSVKKGFEFTLMVVGESGLGKSTLINSLFLTDLYPERVIPGAAEKIERTVQIEASTVEIEERGVKLRLTVVDTPGYGDAINCRDCFKTIISYIDEQFERYLHDESGLNRRHIIDNRVHCCFYFISPFGHGLKPLDVAFMKAIHNKVNIVPVIAKADTLTLKERERLKKRILDEIEEHNIKIYHLPDAESDEDEDFKEQTRLLKASIPFSVVGSNQLIEAKGKKVRGRLYPWGVVEVENPEHNDFLKLRTMLITHMQDLQEVTQDLHYENFRSERLKRGGRKVENEDMNKDQILLEKEAELRRMQEMIARMQAQMQMQMQGGDGDGGALGHHV
B1: the binding entry is “binds”.
